Measured values: patent US20250313621A1
Residue numbers refer to the chain shown, from its start. Results are given in words; binding and its absence hold for the method and conditions named. Some results given as binding are weak or reduced against the parent protein; the word gives no strength.

Chains of the proteins cited; added tags and fusions are not shown. Lines headed by an entry give the natural chain unless they say otherwise; changes in a name come on top.
UniProt P55085: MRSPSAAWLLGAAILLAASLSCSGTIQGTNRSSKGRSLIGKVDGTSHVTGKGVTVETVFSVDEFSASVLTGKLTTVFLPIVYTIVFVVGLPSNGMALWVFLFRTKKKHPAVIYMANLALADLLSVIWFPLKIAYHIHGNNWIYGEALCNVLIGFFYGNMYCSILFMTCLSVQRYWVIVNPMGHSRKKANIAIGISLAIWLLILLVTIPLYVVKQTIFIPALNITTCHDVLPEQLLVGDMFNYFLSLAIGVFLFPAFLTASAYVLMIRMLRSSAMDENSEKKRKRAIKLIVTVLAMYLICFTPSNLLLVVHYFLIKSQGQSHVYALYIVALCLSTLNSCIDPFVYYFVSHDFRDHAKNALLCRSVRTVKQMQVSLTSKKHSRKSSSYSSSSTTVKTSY

Legend:
[1] = target: Wildtype human PAR2 expressed on cells (human) (UniProt P55085); assay: flow cytometry on BacMam-infected HEK293F cells, 20 nM antibody, APC anti-human IgG
[2] = target: Wildtype human PAR2 expressed on cells (human) (UniProt P55085); assay: flow cytometry on BacMam-infected HEK293F cells, 20 nM antibody
[3] = target: Soluble PAR2 StaR (recombinant human PAR2 StaR protein in detergent, construct not stated) (human) (UniProt P55085); assay: SPR Biacore; Y22883 captured to 280-320 RU, 100 nM PAR2 injected, then pH 6.0 buffer for 5 minutes
[4] = target: Soluble PAR2 StaR (recombinant human PAR2 StaR protein in detergent, construct not stated) (human) (UniProt P55085); assay: in depth characterisation, purified PAR2
[5] = target: Wildtype human PAR2 expressed on cells (human) (UniProt P55085); assay: flow cytometry on HEK293F-humanPAR2 (3.0E+06 cells/mL, w/ NaN3), overnight at about 5 C, S/BG
[6] = target: Soluble PAR2 StaR (recombinant human PAR2 StaR protein in detergent, construct not stated) (human) (UniProt P55085); assay: SPR (Biacore), Y22883 captured to 280-320 RU, 100 nM PAR2 injected for 2 min, pH 6.0 buffer injected during dissociation
[7] = target: Wildtype human PAR2 expressed on cells (human) (UniProt P55085); assay: in depth characterisation, cell surface expressed PAR2
[8] = target: Wildtype human PAR2 expressed on cells (human) (UniProt P55085); assay: flow cytometry on over-expressing cells, overnight at about 5 C with sodium azide
[9] = target: V5His-huPAR2 on Flp-In CHO cells (human) (UniProt P55085); assay: flow cytometry, Fab fragments on human PAR2 expressing CHO cells (CHO line not further named in the legend), S/BG
[10] = target: Wildtype human PAR2 expressed on cells (human) (UniProt P55085); assay: flow cytometry on HEK293F-humanPAR2 (3.0E+06 cells/mL), S/BG [continued]
[11] = target: PAR2-2: P166: 1-377, de-glycosylated: N30Q, N222Q, pFastBacHis StrepII, full length (human) (UniProt P55085); assay: Koff-ranking ELISA, antibody titration on FL-PAR2 StaR NanoDisc (deglyc), upper panel, S/BG
[12] = target: PAR2-2: P166: 1-377, de-glycosylated: N30Q, N222Q, pFastBacHis StrepII, full length (human) (UniProt P55085); assay: Koff-ranking ELISA, antibody titration on soluble FL-PAR2 StaR, lower panel, S/BG
[13] = target: PAR2-2: P166: 1-377, de-glycosylated: N30Q, N222Q, pFastBacHis StrepII, full length (human) (UniProt P55085); assay: ELISA, antibody coated at 5 ug/mL, FL-StaR nanodisc at 50 and 5 nM, empty nanodisc as control, S/BG [continued]
[14] = target: Wildtype human PAR2 expressed on cells (human) (UniProt P55085); assay: Human PAR2 binding (overview of maturation candidates)
[15] = target: PAR2-1: P151: 55-377, glycosylated, pFastBacHisStrepII, truncated (human) (UniProt P55085); assay: Koff-ranking ELISA, antibody titration on soluble Truncated PAR2 StaR, lower panel, S/BG
[16] = target: PAR2-2: P166: 1-377, de-glycosylated: N30Q, N222Q, pFastBacHis StrepII, full length (human) (UniProt P55085); assay: competition ELISA on full length PAR2 StaR nanodisc, 50 nM candidate mAb with 200, 100, 50, 25, 0 nM R&D anti-huPAR2 (MAB3949) as competitor, S/BG
[17] = target: PAR2-1: P151: 55-377, glycosylated, pFastBacHisStrepII, truncated (human) (UniProt P55085); assay: Koff-ranking ELISA, antibody titration on Truncated PAR2 StaR NanoDisc (low glyc), upper panel, S/BG

Measured: binding

B1: Y022883 (antibody, human IgG1, lambda, V domains shown)
VH: EVQLLESGGGLVQPGGSLRLSCAASGFSFTRYAISWVRQAPGKGLEWVSVISGHGSEANYAESVKGRFTISRDNSKNTLYLQMNSLRAEDTAVYYCARGFHYTHSGKRYYYPFDIWGQGTLVTVSS
VL: QSALTQPASVSGSPGQSITISCTGTSSDVGSYNLVSWYQQHPGKAPKLMIYEGSKRPSGVSNRFSGSKSGNTASLTISGLQAEDEADYYCSQYATFIAFAVFGGGTKLTVLG
binds: [1] | [2] | [3] | [4] | [5] | [6] | [7] | [8]

B2: Fab Y022877 (Fab, V domains shown)
VH: B1 VH with S28T, T30S, I34M, S35T, V50T, H54L, S56Q, N59Y, E62G
VL: B1 VL
binds: [5] | [9] | [8] | [10]

B3: Y022877 (antibody, human IgG1, lambda, V domains shown)
VH: B1 VH with S28T, T30S, I34M, S35T, V50T, H54L, S56Q, N59Y, E62G
VL: B1 VL
binds: [4] | [5] | [7] | [8]

B4: Y022870 (antibody, human IgG1, lambda, V domains shown)
VH: B1 VH with T30S, S35T, V50T, G53A, H54L, S56L, A58T, N59Y, K65R
VL: B1 VL
binds: [5] | [7] | [8]

B5: Fab Y022870 (Fab, V domains shown)
VH: B1 VH with T30S, S35T, V50T, G53A, H54L, S56L, A58T, N59Y, K65R
VL: B1 VL
binds: [5] | [8]

B6: Fab Y022883 (Fab, V domains shown)
VH: B1 VH
VL: B1 VL
binds: [5] | [9] | [8] | [10]

B7: Y021171 (antibody, V domains shown)
VH: EVQLVESGGGLVKPGGSLRLSCAASGFTFSSYSINWVRQAPGKGLEWVSSISSSSSYTYYAESVKGRFTISRDNAKNSLYLQMNSLRAEDTAVYYCARAASGFAIFDYWGQGTLVTVSS
VL: DIQMTQSPSSVSASVGDRVTITCRASQGISSWLAWYQQKPGKAPKLLIYAASSLQSGVPSRFSGSGSGTDFTLTISSLQPEDFATYYCQQTHYVPLTFGQGTKVEIKR
binds: [11] | [12] | [13] | [14] | [15] | [16] | [17]

B8: Y022054 (antibody, V domains shown)
VH: EVQLLESGGGLVQPGGSLRLSCAASGFTFSSYAISWVRQAPGKGLEWVSAISGSGGSTYYAESVKGRFTISRDNSKNTLYLQMNSLRAEDTAVYYCARGYAEFGVWGQGTLVTVSS
VL: B7 VL with V11L, G28S, W32Y, A34N, H92W, Y93G, V94G, L96Q
binds: [14]
